Measured values published in PMC2291557.
No constants are given. Whether binding was seen depends on the method and setting. In cells and extracts the contact can be indirect. Some entries that bind do so weakly or less than the wild type. One block for each molecule: values may come before it.

Amino acid sequences for entries named in this document (tags omitted).
UniProt P21807: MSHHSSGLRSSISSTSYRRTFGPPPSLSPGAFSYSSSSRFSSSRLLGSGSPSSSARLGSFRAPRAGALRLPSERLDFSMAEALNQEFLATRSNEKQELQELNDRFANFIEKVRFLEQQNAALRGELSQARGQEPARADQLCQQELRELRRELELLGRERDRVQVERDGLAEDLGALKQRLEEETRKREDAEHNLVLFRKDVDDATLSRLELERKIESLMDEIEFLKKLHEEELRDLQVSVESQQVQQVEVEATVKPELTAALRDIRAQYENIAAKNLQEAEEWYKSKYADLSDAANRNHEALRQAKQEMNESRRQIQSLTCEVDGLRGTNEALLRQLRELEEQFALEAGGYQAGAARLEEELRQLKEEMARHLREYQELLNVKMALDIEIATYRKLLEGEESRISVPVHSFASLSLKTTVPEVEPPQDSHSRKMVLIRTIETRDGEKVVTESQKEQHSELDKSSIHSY
UniProt P31000: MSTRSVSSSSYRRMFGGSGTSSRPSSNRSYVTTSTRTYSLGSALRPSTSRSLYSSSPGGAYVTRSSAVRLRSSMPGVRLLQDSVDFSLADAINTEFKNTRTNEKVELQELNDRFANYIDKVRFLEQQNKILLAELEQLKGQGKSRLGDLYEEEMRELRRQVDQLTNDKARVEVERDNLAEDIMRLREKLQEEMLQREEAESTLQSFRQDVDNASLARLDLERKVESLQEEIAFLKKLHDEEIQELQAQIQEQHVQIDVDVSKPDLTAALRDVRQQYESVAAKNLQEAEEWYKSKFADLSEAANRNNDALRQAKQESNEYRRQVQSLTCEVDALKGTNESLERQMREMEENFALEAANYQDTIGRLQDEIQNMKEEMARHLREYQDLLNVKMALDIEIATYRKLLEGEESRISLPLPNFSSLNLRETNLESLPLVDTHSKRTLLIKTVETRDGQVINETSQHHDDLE

Key:
[1] = target: T1, Ndel1 (rat (endogenous in sciatic nerve and spinal cord)) (UniProt Q78PB6); test: co-IP; spinal cord and nerve lysates; immunoprecipitation in both directions (Ndel1 and Peripherin); HA antibodies as control
T1 sequence: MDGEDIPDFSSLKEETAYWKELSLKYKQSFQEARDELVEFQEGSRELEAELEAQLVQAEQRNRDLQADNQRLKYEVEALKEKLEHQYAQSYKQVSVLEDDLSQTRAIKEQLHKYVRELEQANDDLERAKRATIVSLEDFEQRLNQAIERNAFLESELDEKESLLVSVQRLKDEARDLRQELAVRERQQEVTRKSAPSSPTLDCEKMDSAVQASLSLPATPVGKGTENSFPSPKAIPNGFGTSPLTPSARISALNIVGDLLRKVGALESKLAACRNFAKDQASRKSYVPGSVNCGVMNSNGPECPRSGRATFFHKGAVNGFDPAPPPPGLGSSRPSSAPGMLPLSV

[2] = target: T1, Ndel1 (rat (endogenous in sciatic nerve and spinal cord)); test: co-IP; immunoprecipitation with Ndel1 antibodies from sciatic nerve soluble lysates, proximal and distal segments 3-12 h after crush
[3] = target: T1, Ndel1 (rat (endogenous in sciatic nerve and spinal cord)); test: co-IP; immunoprecipitation with Ndel1 antibodies from axonal cytoskeletal preparations from spinal cord, buffers without detergent; no antibodies and GFP antibodies as negative controls
[4] = target: T1, Ndel1 (rat (endogenous in sciatic nerve and spinal cord)); test: co-IP; immunoprecipitation with Ndel1 antibodies from sciatic nerve soluble lysates (buffers without detergent), proximal and distal segments and non-injured contralateral side; two weeks after crush, 65 hours after transection
[5] = target: T1, Ndel1 (rat (endogenous in sciatic nerve and spinal cord)); test: co-IP; immunoprecipitation with Ndel1 antibodies from axoplasm of sciatic nerves isolated in detergent-free buffers (PBS or Tris-NaCl); non-injured, crushed and transected nerves; no antibodies and GFP antibodies as negative controls
[6] = target: T1, Ndel1 (rat (endogenous in sciatic nerve and spinal cord)); test: co-IP; immunoprecipitation with Ndel1 antibodies from sciatic nerve soluble lysates (buffers without detergent), proximal and distal segments and non-injured contralateral side; two weeks after crush, 65 hours after transection; remark: listed apart in the source
[7] = target: Peripherin (rat (endogenous in spinal cord and nerves)) (UniProt P21807); test: co-IP; spinal cord and nerve lysates; immunoprecipitation in both directions (Ndel1 and Peripherin); HA antibodies as control

Molecule: Vimentin full length (from UniProt P31000 1-466)
- binding [2]: no binding (condition: 3-12 h after sciatic nerve crush)
- binding [3]: binds
- binding [4]: binds
- binding [5]: binds

B1: Neurofilament light chain (protein, UniProt P19527 1-542)
chain: MSSFSYEPYFSTSYKRRYVETPRVHISSVRSGYSTARSAYSSYSAPVSSSLSVRRSYSSSSGSLMPSLENLDLSQVAAISNDLKSIRTQEKAQLQDLNDRFASFIERVHELEQQNKVLEAELLVLRQKHSEPSRFRALYEQEIRDLRLAAEDATNEKQALQGEREGLEETLRNLQARYEEEVLSREDAEGRLMEARKGADEAALARAELEKRIDSLMDEIAFLKKVHEEEIAELQAQIQYAQISVEMDVSSKPDLSAALKDIRAQYEKLAAKNMQNAEEWFKSRFTVLTESAAKNTDAVRAAKDEVSESRRLLKAKTLEIEACRGMNEALEKQLQELEDKQNADISAMQDTINKLENELRSTKSEMARYLKEYQDLLNVKMALDIEIAAYRKLLEGEETRLSFTSVGSITSGYSQSSQVFGRSAYSGLQSSSYLMSARAFPAYYTSHVQEEQSEVEETIEATKAEEAKDEPPSEGEAEEEEKEKEEGEEEEGAEEEEAAKDESEDAKEEEGGEGEEEDTKESEEEEKKEESAGEEQAAKKKD
- binding [6]: binds

The remaining lines, values ahead:

- binding [1]: no binding
Molecule: Peripherin (from UniProt P21807 1-468)

- binding [7]: no binding
B2: Ndel1 (protein, UniProt Q78PB6 1-345)
chain: MDGEDIPDFSSLKEETAYWKELSLKYKQSFQEARDELVEFQEGSRELEAELEAQLVQAEQRNRDLQADNQRLKYEVEALKEKLEHQYAQSYKQVSVLEDDLSQTRAIKEQLHKYVRELEQANDDLERAKRATIVSLEDFEQRLNQAIERNAFLESELDEKESLLVSVQRLKDEARDLRQELAVRERQQEVTRKSAPSSPTLDCEKMDSAVQASLSLPATPVGKGTENSFPSPKAIPNGFGTSPLTPSARISALNIVGDLLRKVGALESKLAACRNFAKDQASRKSYVPGSVNCGVMNSNGPECPRSGRATFFHKGAVNGFDPAPPPPGLGSSRPSSAPGMLPLSV
